This is one part of the list.
Columns and labels:
Experiment in all cases: log2 fold change, soluble protein after heating vs DMSO (PISA); higher = thermal stabilisation; K562 cells, 10 uM, 30 min; active = over 0.2 and 3.5 SD of the protein, either way, in both replicates (recomputed)
saracatinib = compound: CN1CCN(CCOc2cc(OC3CCOCC3)c3c(Nc4c(Cl)ccc5c4OCO5)ncnc3c2)CC1 [saracatinib]
Method in brief: (§1)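 Soluble protein was quantified by TMTpro 16plex LC-MS/MS after channel sums were equalised. It was obtained as the supernatant after 21,000xg for 90 min from pooled aliquots of K562 cells (2×10^6 cells/mL, 10 μM compound, 30 min) heated for 3 min across 48°C-58°C and extracted in PBS with 0.5% NP-40 at 4°C. Thermal stability values are relative to control samples and come from duplicates. They are given as log2 fold changes.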

Chains of the proteins cited; added tags and fusions are not shown. Lines headed by an entry give the natural chain unless they say otherwise; changes in a name come on top.
UniProt Q9H777: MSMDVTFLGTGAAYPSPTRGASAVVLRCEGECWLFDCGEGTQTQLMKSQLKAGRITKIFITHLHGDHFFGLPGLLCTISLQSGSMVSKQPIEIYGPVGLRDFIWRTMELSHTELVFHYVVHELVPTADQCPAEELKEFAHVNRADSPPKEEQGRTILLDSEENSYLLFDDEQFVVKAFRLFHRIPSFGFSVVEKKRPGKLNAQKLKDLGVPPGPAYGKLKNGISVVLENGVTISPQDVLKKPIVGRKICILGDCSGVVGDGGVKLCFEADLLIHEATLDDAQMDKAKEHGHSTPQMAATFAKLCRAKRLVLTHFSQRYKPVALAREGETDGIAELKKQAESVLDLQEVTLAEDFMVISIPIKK
UniProt Q92556, whole entry, looked up: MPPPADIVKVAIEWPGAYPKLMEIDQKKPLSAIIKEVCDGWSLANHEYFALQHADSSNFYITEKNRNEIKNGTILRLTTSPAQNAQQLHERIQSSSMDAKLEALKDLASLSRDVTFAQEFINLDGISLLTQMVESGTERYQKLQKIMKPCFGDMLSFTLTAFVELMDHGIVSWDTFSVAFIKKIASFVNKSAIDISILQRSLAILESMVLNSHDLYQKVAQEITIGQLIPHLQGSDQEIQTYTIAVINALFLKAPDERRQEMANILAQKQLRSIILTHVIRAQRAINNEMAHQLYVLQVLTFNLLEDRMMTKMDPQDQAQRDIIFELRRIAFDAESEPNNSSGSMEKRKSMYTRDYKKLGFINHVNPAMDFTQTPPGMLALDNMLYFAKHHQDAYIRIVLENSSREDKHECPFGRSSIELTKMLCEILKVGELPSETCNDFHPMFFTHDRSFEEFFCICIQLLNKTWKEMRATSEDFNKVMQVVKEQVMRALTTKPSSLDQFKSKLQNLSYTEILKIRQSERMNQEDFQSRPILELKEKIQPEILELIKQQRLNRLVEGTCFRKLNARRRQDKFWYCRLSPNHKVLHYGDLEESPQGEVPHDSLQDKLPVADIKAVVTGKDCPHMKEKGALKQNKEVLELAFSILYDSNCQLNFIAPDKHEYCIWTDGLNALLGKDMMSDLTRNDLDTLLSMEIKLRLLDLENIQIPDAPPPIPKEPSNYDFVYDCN
UniProt P26641, whole entry, looked up: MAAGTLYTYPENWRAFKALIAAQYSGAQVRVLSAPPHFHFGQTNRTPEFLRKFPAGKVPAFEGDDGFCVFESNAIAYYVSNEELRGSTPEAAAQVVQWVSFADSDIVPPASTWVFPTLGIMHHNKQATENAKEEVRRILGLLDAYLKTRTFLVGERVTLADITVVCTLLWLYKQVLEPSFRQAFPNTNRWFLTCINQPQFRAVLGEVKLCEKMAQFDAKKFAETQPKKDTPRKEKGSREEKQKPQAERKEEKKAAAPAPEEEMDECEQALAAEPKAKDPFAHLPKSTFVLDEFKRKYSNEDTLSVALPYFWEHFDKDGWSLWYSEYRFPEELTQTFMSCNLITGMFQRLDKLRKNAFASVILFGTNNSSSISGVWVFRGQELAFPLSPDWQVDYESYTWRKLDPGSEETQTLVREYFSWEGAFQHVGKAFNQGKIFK
UniProt Q9BQI3, whole entry, looked up: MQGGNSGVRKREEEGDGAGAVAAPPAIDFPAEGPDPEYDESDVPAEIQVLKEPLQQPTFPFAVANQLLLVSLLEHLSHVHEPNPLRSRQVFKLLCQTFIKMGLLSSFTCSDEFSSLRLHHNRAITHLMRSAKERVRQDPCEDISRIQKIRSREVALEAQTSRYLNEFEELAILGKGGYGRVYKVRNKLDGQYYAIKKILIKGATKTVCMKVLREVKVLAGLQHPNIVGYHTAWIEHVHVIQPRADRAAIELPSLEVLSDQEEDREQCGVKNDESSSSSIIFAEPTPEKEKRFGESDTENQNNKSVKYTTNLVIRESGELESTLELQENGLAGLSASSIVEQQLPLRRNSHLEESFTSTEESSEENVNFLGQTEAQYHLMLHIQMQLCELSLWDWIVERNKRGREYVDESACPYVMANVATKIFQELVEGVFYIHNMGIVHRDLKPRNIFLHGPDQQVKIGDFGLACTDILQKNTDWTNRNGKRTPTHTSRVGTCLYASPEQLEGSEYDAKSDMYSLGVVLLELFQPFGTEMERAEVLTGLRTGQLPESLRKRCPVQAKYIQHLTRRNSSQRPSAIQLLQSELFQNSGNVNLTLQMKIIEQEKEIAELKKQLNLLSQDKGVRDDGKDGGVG
UniProt Q9NQZ7: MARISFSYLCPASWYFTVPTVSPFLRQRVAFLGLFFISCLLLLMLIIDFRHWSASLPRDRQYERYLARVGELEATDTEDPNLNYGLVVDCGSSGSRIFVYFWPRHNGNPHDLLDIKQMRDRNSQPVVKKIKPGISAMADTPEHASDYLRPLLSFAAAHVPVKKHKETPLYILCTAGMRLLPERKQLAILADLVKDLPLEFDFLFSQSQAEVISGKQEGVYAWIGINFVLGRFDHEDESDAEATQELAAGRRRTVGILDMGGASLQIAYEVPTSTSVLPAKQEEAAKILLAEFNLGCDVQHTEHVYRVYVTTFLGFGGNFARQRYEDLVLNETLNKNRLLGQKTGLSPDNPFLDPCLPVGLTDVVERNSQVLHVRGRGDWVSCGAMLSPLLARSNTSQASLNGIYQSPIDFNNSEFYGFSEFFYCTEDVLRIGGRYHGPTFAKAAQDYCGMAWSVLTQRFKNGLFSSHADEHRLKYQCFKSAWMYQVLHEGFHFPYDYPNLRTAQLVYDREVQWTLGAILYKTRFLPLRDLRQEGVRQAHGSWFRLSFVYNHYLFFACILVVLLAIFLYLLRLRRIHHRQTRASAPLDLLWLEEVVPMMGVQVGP
UniProt Q9GZV4: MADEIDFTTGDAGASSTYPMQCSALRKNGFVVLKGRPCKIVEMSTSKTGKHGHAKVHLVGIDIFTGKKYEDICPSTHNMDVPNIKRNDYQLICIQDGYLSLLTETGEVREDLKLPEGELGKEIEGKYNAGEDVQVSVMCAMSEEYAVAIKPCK

sotrastaurin = compound: CN1CCN(c2nc(C3=C(c4c[nH]c5ccccc45)C(=O)NC3=O)c3ccccc3n2)CC1 [sotrastaurin]
Method in brief: as §1

[1] = compound: CNC(=O)C1=CC=CC=C1NC2=NC(=NC=C2Cl)NC3=C(C=C(C=C3)N4CCOCC4)OC
Method in brief: as §1

defactinib = compound: CNC(=O)c1ccc(Nc2ncc(C(F)(F)F)c(NCc3nccnc3N(C)S(C)(=O)=O)n2)cc1 [defactinib]
Method in brief: as §1

rucaparib = compound: CNCc1ccc(-c2[nH]c3cc(F)cc4c3c2CCNC4=O)cc1 [rucaparib]
Method in brief: as §1

[2] = compound: CNc1nc(-c2ccc3c(N)n[nH]c3c2)cc(N2C[C@@H](C(=O)NC3CCCCC3)CC[C@H]2C)n1
Method in brief: as §1

encorafenib = compound: COC(=O)N[C@@H](C)CNc1nccc(-c2cn(C(C)C)nc2-c2cc(Cl)cc(NS(C)(=O)=O)c2F)n1 [encorafenib]
Method in brief: as §1

[3] = compound: COC(=O)[C@H](CCSC)NC(=O)C1=C(C=C(C=C1)NC[C@H](CS)N)C2=CC=CC=C2
Method in brief: as §1

[4] = compound: COC1=CC=C(C=C1)CN2C=CC3=C2C=C(C=C3)C(=O)NO
Method in brief: as §1

filanesib = compound: CON(C)C(=O)N1N=C(c2cc(F)ccc2F)S[C@@]1(CCCN)c1ccccc1 [filanesib]
Method in brief: as §1

zotarolimus = compound: CO[C@H]1C[C@@H]2CC[C@@H](C)[C@@](O)(O2)C(=O)C(=O)N2CCCC[C@H]2C(=O)O[C@H]([C@H](C)C[C@@H]2CC[C@H](n3cnnn3)[C@H](OC)C2)CC(=O)[C@H](C)/C=C(\C)[C@@H](O)[C@@H](OC)C(=O)[C@H](C)C[C@H](C)/C=C/C=C/C=C/1C [zotarolimus]
Method in brief: as §1

idasanutlin = compound: COc1cc(C(=O)O)ccc1NC(=O)[C@@H]1N[C@@H](CC(C)(C)C)[C@](C#N)(c2ccc(Cl)cc2F)[C@H]1c1cccc(Cl)c1F [idasanutlin]
Method in brief: as §1

[5] = compound: COc1cc2nc(-c3cc(F)ccc3O)nc(N[C@@H]3CNC[C@H]3C(C)(C)O)c2cc1OC
Method in brief: as §1

gefitinib = compound: COc1cc2ncnc(Nc3ccc(F)c(Cl)c3)c2cc1OCCCN1CCOCC1 [gefitinib]
Method in brief: as §1

lapatinib = compound: CS(=O)(=O)CCNCc1ccc(-c2ccc3ncnc(Nc4ccc(OCc5cccc(F)c5)c(Cl)c4)c3c2)o1 [lapatinib]
Method in brief: as §1

pictilisib = compound: CS(=O)(=O)N1CCN(Cc2cc3nc(-c4cccc5[nH]ncc45)nc(N4CCOCC4)c3s2)CC1 [pictilisib]
Method in brief: as §1

alisertib = compound: COc1cc(Nc2ncc3c(n2)-c2ccc(Cl)cc2C(c2c(F)cccc2OC)=NC3)ccc1C(=O)O [alisertib]
Method in brief: as §1

[6] = compound: COc1cccc2cc(-c3nc([C@H]4CC[C@H](C(=O)O)CC4)n4ncnc(N)c34)[nH]c12
Method in brief: as §1

Tubastatin A = compound: CN1CCc2c(c3ccccc3n2Cc2ccc(C(=O)NO)cc2)C1 [Tubastatin A]
Method in brief: as §1

alvocidib = compound: CN1CC[C@H](c2c(O)cc(O)c3c(=O)cc(-c4ccccc4Cl)oc23)[C@H](O)C1 [alvocidib]
Method in brief: as §1

Measured: log2 fold change

ELAC1 (UniProt Q9H777)
inactive: saracatinib 0.094 | sotrastaurin 0.006 | [1] -0.056 | defactinib -0.031 | rucaparib 0.153 | [2] 0.049 | encorafenib 0.063 | [3] 0.022 | [4] 0.022 | filanesib 0.083 | zotarolimus -0.06 | idasanutlin 0.122 | [5] 0.06 | gefitinib 0.112 | lapatinib -0.009 | pictilisib 0.049

ELMO1 (UniProt Q92556)
inactive: saracatinib 0.051 | sotrastaurin 0.046 | [1] -0.074 | defactinib -0.045 | [2] 0.041 | [3] -0.222 | [4] -0.108 | filanesib 0.072 | alisertib 0.212 | gefitinib 0.017 | [6] 0.08

EEF1G isoform 2 (UniProt P26641)
inactive: saracatinib -0.012 | sotrastaurin -0.041 | Tubastatin A -0.008 | [1] 0.075 | defactinib -0.051 | rucaparib 0.045 | [2] 0.02 | encorafenib 0.076 | [3] -0.047 | [4] -0.017 | filanesib 0.012 | zotarolimus 0.027 | idasanutlin -0.014 | alisertib -0.046 | [5] -0.016 | gefitinib 0.018 | [6] -0.083 | lapatinib 0.041 | pictilisib -0.06

EIF2AK1 (UniProt Q9BQI3)
inactive: saracatinib 0.073 | sotrastaurin 0.095 | Tubastatin A 0.128 | [1] 0.002 | defactinib -0.008 | [2] -0.09 | [3] 0.04 | [4] -0.047 | filanesib 0.014 | zotarolimus -0.057 | idasanutlin -0.035 | alisertib 0.032 | [5] 0.01 | [6] -0.089 | lapatinib 0.025 | pictilisib -0.147

ENTPD7 (UniProt Q9NQZ7)
inactive: saracatinib 0.155 | sotrastaurin 0.17 | Tubastatin A 0.064 | [1] -0.162 | rucaparib -0.078 | [2] 0.136 | encorafenib -0.26 | [4] -0.031 | filanesib -0.268 | alisertib -0.054 | [5] 0.06 | gefitinib -0.026 | [6] 0.03 | lapatinib 0.099

EIF5A2 (UniProt Q9GZV4)
inactive: saracatinib -0.153 | alvocidib -0.018 | [2] -0.07 | zotarolimus 0.036 | idasanutlin 0.048 | alisertib 0.05 | [6] 0.02

EIF3I (UniProt Q5TFK1)
inactive: saracatinib -0.023 | alvocidib -0.13 | Tubastatin A 0.07 | [2] -0.176 | [4] 0.028 | zotarolimus 0.1 | idasanutlin 0.193

From the supplement of paper PMC10849652
